Assays:
in vitro [1] = details: human, Caco-2
in vitro [2] = details: human, Caco-2; remark: listed apart in the source

Structure (SMILES): Nc1nc2ccc(C(=O)N3CCN(C(=O)/C=C/c4ccc(Br)cc4)CC3)cc2s1
- Papp A→B (in vitro [1]): 12.7 ×10⁻⁶ cm/s
- Papp B→A (in vitro [2]): 11.8 ×10⁻⁶ cm/s
